Laboratory results: PubChem BioAssay AID743121 (NCATS, 2013)
Aim: 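Genes whose silencing strengthens cell killing by camptothecin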 (primary screen). System: MDA-MB-231 cells, a human breast cancer line. Reagent: single siRNA against human genes, 20 nM siRNA (0.8 pmol per well). Time to read-out: 120 h (drug added 48 h after transfection, read 72 h later). Treatment: camptothecin 20 nM (about EC30) for 72 h; vehicle 0.1% DMSO in parallel plates. Measurement: 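CellTiter-Glo ATP signal, scaled to control siRNA as percent viability; sensitisation given as log2 of untreated divided by camptothecin-treated viability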. Reading the numbers: log2 vehicle/camptothecin viability: higher = stronger sensitisation to camptothecin; viability with camptothecin: higher = more viable cells. Active means: 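Active genes have an RSA gene-level p-value below 0.001, computed from the ratios of their separate siRNAs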.
Here is an unselected part of about 26,000 reagents. Over the whole deposit, 167 (0.63%) are marked active. 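Calls are per gene from RSA p-values that are not deposited; an individual active-marked siRNA can sensitise only weakly.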 The numbers tell different reagents against one gene apart. Not all columns of the deposit are shown.

For NDUFS4 #1, the entry reads log2 vehicle/camptothecin viability -0.0559; viability with camptothecin (% of control) = 113; inactive.
With knock-down of NDUFS4 #2 the results were log2 vehicle/camptothecin viability -0.502; viability with camptothecin (% of control) = 88.9; inactive.
Against NDUFS4 #3, the entry reads log2 vehicle/camptothecin viability -0.409; viability with camptothecin (% of control) = 140; inactive.
After knock-down of NDUFS4 #4 the results were log2 vehicle/camptothecin viability -0.0956; viability with camptothecin (% of control) = 99.6; inactive.
ITLN2 #1 scored log2 vehicle/camptothecin viability -0.19; viability with camptothecin (% of control) = 62.4; inactive.
For ITLN2 #2, the entry reads log2 vehicle/camptothecin viability 0.0528; viability with camptothecin (% of control) = 72.5; inactive.
For ITLN2 #3, the values are log2 vehicle/camptothecin viability -0.192; viability with camptothecin (% of control) = 107; inactive.
Depletion of ITLN2 #4 came out at: log2 vehicle/camptothecin viability -0.323; viability with camptothecin (% of control) = 91.2; inactive.
CAPN6 #1 showed log2 vehicle/camptothecin viability -0.0806; viability with camptothecin (% of control) = 73.6; inactive.
CAPN6 #2 showed log2 vehicle/camptothecin viability -0.282; viability with camptothecin (% of control) = 72.5; inactive.
After knock-down of CAPN6 #3, the record shows log2 vehicle/camptothecin viability -0.235; viability with camptothecin (% of control) = 103; inactive.
Against IP6K3 #1 the deposit lists log2 vehicle/camptothecin viability -0.499; viability with camptothecin (% of control) = 64.6; inactive.
Knock-down of IP6K3 #2 resulted in: log2 vehicle/camptothecin viability -0.306; viability with camptothecin (% of control) = 82.5; inactive.
Knock-down of IP6K3 #3 resulted in: log2 vehicle/camptothecin viability -0.326; viability with camptothecin (% of control) = 78.7; inactive.
After knock-down of IP6K3 #4 the results were log2 vehicle/camptothecin viability -0.457; viability with camptothecin (% of control) = 97.3; inactive.

Targets above whose gene name begins with C or c (3):
CAPN6 #1: log2 vehicle/camptothecin viability = -0.0806; viability with camptothecin (% of control) = 73.6; call = inactive
CAPN6 #2: log2 vehicle/camptothecin viability = -0.282; viability with camptothecin (% of control) = 72.5; call = inactive
CAPN6 #3: log2 vehicle/camptothecin viability = -0.235; viability with camptothecin (% of control) = 103; call = inactive
